# The other results are listed elsewhere or left out.
# Columns and labels:
# Assay in all cases: glycan array binding signal (z-score within array); higher = stronger binding
# Details in all cases: glycan notation: IUPAC condensed, linker removed
# Gal(b1-4)Glc = target: Gal(b1-4)Glc
# Procedure, shortened: (§1)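 Glycan array data came from 3228 arrays in the Consortium for Functional Glycomics database, and only arrays with an available protein sequence were kept. Glycan names were put into IUPAC-condensed notation, and columns mapping to the same glycan were averaged. The binding signal is a within-array Z-score, averaged across arrays of one protein sequence run at different concentrations or buffers and across linkers. A negative Z-score can be read as non-binding.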
# Gal(b1-4)Glc6S = target: Gal(b1-4)Glc6S
# Procedure, shortened: as §1
# Gal(b1-4)GlcNAc = target: Gal(b1-4)GlcNAc
# Procedure, shortened: as §1
# [1] = target: Gal(b1-4)GlcNAc(a1-6)Gal(b1-4)GlcNAc
# Procedure, shortened: as §1
# Gal(b1-4)GlcNAc(b1-2)Man = target: Gal(b1-4)GlcNAc(b1-2)Man
# Procedure, shortened: as §1
# [2] = target: Gal(b1-4)GlcNAc(b1-2)Man(a1-3)Man(b1-4)GlcNAc(b1-4)GlcNAc
# Procedure, shortened: as §1
# [3] = target: Gal(b1-4)GlcNAc(b1-2)Man(a1-3)[Gal(b1-4)GlcNAc(b1-2)Man(a1-6)]Man(b1-4)GlcNAc(b1-4)GlcNAc
# Procedure, shortened: as §1
# [4] = target: Gal(b1-4)GlcNAc(b1-2)Man(a1-3)[Gal(b1-4)GlcNAc(b1-2)Man(a1-6)]Man(b1-4)GlcNAc(b1-4)[Fuc(a1-6)]GlcNAc
# Procedure, shortened: as §1
# [5] = target: Gal(b1-4)GlcNAc(b1-2)Man(a1-3)[Gal(b1-4)GlcNAc(b1-2)Man(a1-6)][Gal(b1-4)GlcNAc(b1-4)]Man(b1-4)GlcNAc(b1-4)[Fuc(a1-6)]GlcNAc
# Procedure, shortened: as §1
# [6] = target: Gal(b1-4)GlcNAc(b1-2)Man(a1-3)[Gal(b1-4)GlcNAc(b1-2)Man(a1-6)][GlcNAc(b1-4)]Man(b1-4)GlcNAc(b1-4)[Fuc(a1-6)]GlcNAc
# Procedure, shortened: as §1
# [7] = target: Gal(b1-4)GlcNAc(b1-2)Man(a1-3)[GlcNAc(b1-2)Man(a1-6)]Man(b1-4)GlcNAc(b1-4)GlcNAc
# Procedure, shortened: as §1
# [8] = target: Gal(b1-4)GlcNAc(b1-2)Man(a1-3)[GlcNAc(b1-4)][Gal(b1-4)GlcNAc(b1-2)Man(a1-6)]Man(b1-4)GlcNAc(b1-4)GlcNAc
# Procedure, shortened: as §1
# [9] = target: Gal(b1-4)GlcNAc(b1-2)Man(a1-3)[Man(a1-6)]Man(b1-4)GlcNAc(b1-4)GlcNAc
# Procedure, shortened: as §1
# [10] = target: Gal(b1-4)GlcNAc(b1-2)Man(a1-6)Man(b1-4)GlcNAc(b1-4)GlcNAc
# Procedure, shortened: as §1
# [11] = target: Gal(b1-4)GlcNAc(b1-2)Man(a1-6)[GlcNAc(b1-2)Man(a1-3)]Man(b1-4)GlcNAc(b1-4)GlcNAc
# Procedure, shortened: as §1
# [12] = target: Gal(b1-4)GlcNAc(b1-2)Man(a1-6)[Man(a1-3)]Man(b1-4)GlcNAc(b1-4)GlcNAc
# Procedure, shortened: as §1
# [13] = target: Gal(b1-4)GlcNAc(b1-2)[Gal(b1-4)GlcNAc(b1-4)]Man(a1-3)[Gal(b1-4)GlcNAc(b1-2)Man(a1-6)]Man(b1-4)GlcNAc(b1-4)GlcNAc
# Procedure, shortened: as §1
# [14] = target: Gal(b1-4)GlcNAc(b1-2)[Gal(b1-4)GlcNAc(b1-4)]Man(a1-3)[Gal(b1-4)GlcNAc(b1-2)[Gal(b1-4)GlcNAc(b1-6)]Man(a1-6)]Man(b1-4)GlcNAc(b1-4)GlcNAc
# Procedure, shortened: as §1
# [15] = target: Gal(b1-4)GlcNAc(b1-2)[Gal(b1-4)GlcNAc(b1-4)]Man(a1-3)[GlcNAc(b1-4)][Gal(b1-4)GlcNAc(b1-2)Man(a1-6)]Man(b1-4)GlcNAc(b1-4)GlcNAc
# Procedure, shortened: as §1
# [16] = target: Gal(b1-4)GlcNAc(b1-2)[Gal(b1-4)GlcNAc(b1-4)]Man(a1-3)[GlcNAc(b1-4)][Gal(b1-4)GlcNAc(b1-2)[Gal(b1-4)GlcNAc(b1-6)]Man(a1-6)]Man(b1-4)GlcNAc(b1-4)GlcNAc
# Procedure, shortened: as §1
# [17] = target: Gal(b1-4)GlcNAc(b1-2)[Gal(b1-4)GlcNAc(b1-6)]Man(a1-6)[Gal(b1-4)GlcNAc(b1-2)Man(a1-3)]Man(b1-4)GlcNAc(b1-4)GlcNAc
# Procedure, shortened: as §1
# [18] = target: Gal(b1-4)GlcNAc(b1-2)[Gal(b1-4)GlcNAc(b1-6)]Man(a1-6)[Gal(b1-4)GlcNAc(b1-2)Man(a1-3)]Man(b1-4)GlcNAc(b1-4)[Fuc(a1-6)]GlcNAc
# Procedure, shortened: as §1
# [19] = target: Gal(b1-4)GlcNAc(b1-2)[Gal(b1-4)GlcNAc(b1-6)]Man(a1-6)[GlcNAc(b1-4)][Gal(b1-4)GlcNAc(b1-2)Man(a1-3)]Man(b1-4)GlcNAc(b1-4)GlcNAc
# Procedure, shortened: as §1
# [20] = target: Gal(b1-4)GlcNAc(b1-2)[Gal(b1-4)GlcNAc(b1-6)]Man(a1-6)[GlcNAc(b1-4)][Gal(b1-4)GlcNAc(b1-2)[Gal(b1-4)GlcNAc(b1-4)]Man(a1-3)]Man(b1-4)GlcNAc(b1-4)[Fuc(a1-6)]GlcNAc
# Procedure, shortened: as §1
# [21] = target: Gal(b1-4)GlcNAc(b1-3)Gal(b1-3)GalNAc
# Procedure, shortened: as §1
# [22] = target: Gal(b1-4)GlcNAc(b1-3)Gal(b1-3)GlcNAc
# Procedure, shortened: as §1
# [23] = target: Gal(b1-4)GlcNAc(b1-3)Gal(b1-4)Glc
# Procedure, shortened: as §1
# [24] = target: Gal(b1-4)GlcNAc(b1-3)Gal(b1-4)GlcNAc
# Procedure, shortened: as §1
# [25] = target: Gal(b1-4)GlcNAc(b1-3)Gal(b1-4)GlcNAc(b1-2)Man(a1-3)[Gal(b1-4)GlcNAc(b1-3)Gal(b1-4)GlcNAc(b1-2)Man(a1-6)]Man(b1-4)GlcNAc(b1-4)GlcNAc
# Procedure, shortened: as §1
# [26] = target: Gal(b1-4)GlcNAc(b1-3)Gal(b1-4)GlcNAc(b1-2)Man(a1-3)[Gal(b1-4)GlcNAc(b1-3)Gal(b1-4)GlcNAc(b1-2)Man(a1-6)]Man(b1-4)GlcNAc(b1-4)[Fuc(a1-6)]GlcNAc
# Procedure, shortened: as §1
binder,measurement,setting,value
PX14343F-bfa-562-20-562 (Bacteroides fragilis) (protein) CDDFLDSFPQDTVTNENFWKSKEDADKVLVDIYASLLPKDAIFFDEAMSDNAYLVWDWWGGAQQVANGSYTTSGEIPTNRWNGSYEVIRKCWFLLEGIEKIEDISEQDKNKIIGETYFMLAYNYYVLTSYFGDVPLVTKTLAIPESKQLVRTPKAEVVDYAINKLKEAAVMLEGLSQEKGRVTADACRFLIARMYLYNGDYSNVLETVKLLEGKYQLYREGDTPYEDLFSGVAENSCEVILSVVCDKRVGEIYTSHGGNGIMLLKGITGEDPYRGVTPSGSLVDAYPMADGRLIHEAGSSYDPKKPYEGRDPRFYQSIVYPTGQIKYLDVETGTVKERLYDPEDPTTVPEHQYNYSQPSATGYMWNKYIDYSVYAMNSVWDCTNDIIVFRYADVLLMKAEALLQTKGESAKEEVCNLIDQLRDRCSCGRVHRENYNSKDELMELLKNERRIELANEGLRYMDLIRWKDAEKNTIVTGVGLTGQMYGAYMRKDGVGKDDKTVDVDNTPRRYIETRYFNASKGYLFPIPQKERDLNPNLTQNPNW,glycan array binding signal (z-score),Gal(b1-4)Glc,-0.415
same,glycan array binding signal (z-score),Gal(b1-4)Glc6S,0.438
same,glycan array binding signal (z-score),Gal(b1-4)GlcNAc,-0.413
same,glycan array binding signal (z-score),[1],-0.262
same,glycan array binding signal (z-score),Gal(b1-4)GlcNAc(b1-2)Man,0.844
same,glycan array binding signal (z-score),[2],-0.717
same,glycan array binding signal (z-score),[3],-0.901
same,glycan array binding signal (z-score),[4],-0.507
same,glycan array binding signal (z-score),[5],-0.394
same,glycan array binding signal (z-score),[6],-0.937
same,glycan array binding signal (z-score),[7],-0.321
same,glycan array binding signal (z-score),[8],-0.235
same,glycan array binding signal (z-score),[9],0.082
same,glycan array binding signal (z-score),[10],-0.546
same,glycan array binding signal (z-score),[11],0.317
same,glycan array binding signal (z-score),[12],0.332
same,glycan array binding signal (z-score),[13],-0.599
same,glycan array binding signal (z-score),[14],-0.168
same,glycan array binding signal (z-score),[15],0.08
same,glycan array binding signal (z-score),[16],0.047
same,glycan array binding signal (z-score),[17],0.143
same,glycan array binding signal (z-score),[18],-0.035
same,glycan array binding signal (z-score),[19],-0.358
same,glycan array binding signal (z-score),[20],0.127
same,glycan array binding signal (z-score),[21],0.076
same,glycan array binding signal (z-score),[22],0.748
same,glycan array binding signal (z-score),[23],0.924
same,glycan array binding signal (z-score),[24],-0.499
same,glycan array binding signal (z-score),[25],1.15
same,glycan array binding signal (z-score),[26],0.869

# Pulled one by one from the list above (2):
binder,measurement,setting,value
PX14343F-bfa-562-20-562 (Bacteroides fragilis) (protein) CDDFLDSFPQDTVTNENFWKSKEDADKVLVDIYASLLPKDAIFFDEAMSDNAYLVWDWWGGAQQVANGSYTTSGEIPTNRWNGSYEVIRKCWFLLEGIEKIEDISEQDKNKIIGETYFMLAYNYYVLTSYFGDVPLVTKTLAIPESKQLVRTPKAEVVDYAINKLKEAAVMLEGLSQEKGRVTADACRFLIARMYLYNGDYSNVLETVKLLEGKYQLYREGDTPYEDLFSGVAENSCEVILSVVCDKRVGEIYTSHGGNGIMLLKGITGEDPYRGVTPSGSLVDAYPMADGRLIHEAGSSYDPKKPYEGRDPRFYQSIVYPTGQIKYLDVETGTVKERLYDPEDPTTVPEHQYNYSQPSATGYMWNKYIDYSVYAMNSVWDCTNDIIVFRYADVLLMKAEALLQTKGESAKEEVCNLIDQLRDRCSCGRVHRENYNSKDELMELLKNERRIELANEGLRYMDLIRWKDAEKNTIVTGVGLTGQMYGAYMRKDGVGKDDKTVDVDNTPRRYIETRYFNASKGYLFPIPQKERDLNPNLTQNPNW,glycan array binding signal (z-score),[19],-0.358
same,glycan array binding signal (z-score),Gal(b1-4)GlcNAc,-0.413

# — the supplement of paper PMC8728848
